According to paper PMC6753376:
No constants are given. Whether binding was seen depends on the method and setting. Binding seen in cells or lysates may run through a third protein. Some results given as binding are weak or reduced against the parent protein; the word gives no strength. Values belong to the substance of their own block, whether it stands above or below them.

Amino acid sequences for entries named in this document (tags omitted).
UniProt P61201: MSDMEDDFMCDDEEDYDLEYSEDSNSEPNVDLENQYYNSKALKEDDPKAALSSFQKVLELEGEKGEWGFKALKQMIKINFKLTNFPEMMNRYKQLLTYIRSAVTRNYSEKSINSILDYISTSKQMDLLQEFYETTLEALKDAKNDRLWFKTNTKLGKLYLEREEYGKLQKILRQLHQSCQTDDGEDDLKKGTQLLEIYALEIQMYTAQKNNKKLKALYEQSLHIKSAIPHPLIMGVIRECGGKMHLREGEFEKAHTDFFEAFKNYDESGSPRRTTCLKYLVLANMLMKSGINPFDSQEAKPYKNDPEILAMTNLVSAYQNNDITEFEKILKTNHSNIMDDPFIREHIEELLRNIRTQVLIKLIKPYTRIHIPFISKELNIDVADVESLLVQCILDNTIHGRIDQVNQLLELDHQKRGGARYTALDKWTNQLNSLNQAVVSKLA
UniProt Q06323: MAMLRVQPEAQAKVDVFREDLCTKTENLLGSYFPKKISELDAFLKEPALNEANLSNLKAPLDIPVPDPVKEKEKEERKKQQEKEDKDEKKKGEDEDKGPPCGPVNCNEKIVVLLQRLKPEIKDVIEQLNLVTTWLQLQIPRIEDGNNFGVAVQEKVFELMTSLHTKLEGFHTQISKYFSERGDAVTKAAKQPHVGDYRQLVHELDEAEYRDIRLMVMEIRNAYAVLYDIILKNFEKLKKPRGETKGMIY
UniProt P46940: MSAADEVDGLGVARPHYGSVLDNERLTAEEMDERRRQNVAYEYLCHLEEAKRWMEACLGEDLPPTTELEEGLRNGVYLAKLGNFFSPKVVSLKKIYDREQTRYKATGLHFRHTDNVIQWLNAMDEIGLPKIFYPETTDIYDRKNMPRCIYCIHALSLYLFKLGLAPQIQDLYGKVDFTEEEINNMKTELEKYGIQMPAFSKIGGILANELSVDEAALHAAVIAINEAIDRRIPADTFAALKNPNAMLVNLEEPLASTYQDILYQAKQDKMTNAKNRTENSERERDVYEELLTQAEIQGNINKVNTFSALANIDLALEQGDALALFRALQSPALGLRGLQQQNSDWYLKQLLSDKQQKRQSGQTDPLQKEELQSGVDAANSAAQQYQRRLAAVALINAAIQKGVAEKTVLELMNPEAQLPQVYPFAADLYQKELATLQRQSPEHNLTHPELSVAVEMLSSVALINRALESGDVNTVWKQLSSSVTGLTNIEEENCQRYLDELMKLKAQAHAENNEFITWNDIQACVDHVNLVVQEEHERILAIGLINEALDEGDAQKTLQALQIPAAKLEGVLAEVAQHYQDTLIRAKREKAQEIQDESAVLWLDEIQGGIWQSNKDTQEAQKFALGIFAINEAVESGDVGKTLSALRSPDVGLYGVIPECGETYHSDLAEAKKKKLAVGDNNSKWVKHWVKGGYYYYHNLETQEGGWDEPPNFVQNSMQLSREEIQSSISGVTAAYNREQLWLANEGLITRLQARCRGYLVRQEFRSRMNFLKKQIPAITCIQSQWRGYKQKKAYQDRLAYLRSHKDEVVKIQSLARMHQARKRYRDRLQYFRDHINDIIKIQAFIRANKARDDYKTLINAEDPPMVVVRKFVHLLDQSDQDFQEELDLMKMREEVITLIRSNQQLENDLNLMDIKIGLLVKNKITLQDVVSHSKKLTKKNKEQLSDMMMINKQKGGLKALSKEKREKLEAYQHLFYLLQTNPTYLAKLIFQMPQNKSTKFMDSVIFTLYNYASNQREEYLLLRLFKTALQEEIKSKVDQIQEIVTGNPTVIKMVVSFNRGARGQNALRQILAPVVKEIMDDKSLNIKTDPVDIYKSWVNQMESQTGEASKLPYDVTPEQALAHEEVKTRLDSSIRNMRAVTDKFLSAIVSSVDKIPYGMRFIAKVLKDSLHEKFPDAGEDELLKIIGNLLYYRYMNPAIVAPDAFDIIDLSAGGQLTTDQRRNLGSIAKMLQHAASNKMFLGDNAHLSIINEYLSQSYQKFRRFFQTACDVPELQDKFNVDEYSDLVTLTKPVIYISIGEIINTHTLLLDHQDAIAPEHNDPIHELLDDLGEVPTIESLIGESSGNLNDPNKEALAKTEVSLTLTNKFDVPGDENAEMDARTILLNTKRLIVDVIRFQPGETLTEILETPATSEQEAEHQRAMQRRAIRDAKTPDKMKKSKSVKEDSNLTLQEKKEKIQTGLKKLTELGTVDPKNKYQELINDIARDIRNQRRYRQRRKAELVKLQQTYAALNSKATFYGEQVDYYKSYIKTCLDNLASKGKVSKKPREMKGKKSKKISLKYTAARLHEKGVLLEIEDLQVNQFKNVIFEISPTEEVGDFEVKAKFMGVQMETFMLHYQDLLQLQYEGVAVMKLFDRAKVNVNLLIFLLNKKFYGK
UniProt P08579: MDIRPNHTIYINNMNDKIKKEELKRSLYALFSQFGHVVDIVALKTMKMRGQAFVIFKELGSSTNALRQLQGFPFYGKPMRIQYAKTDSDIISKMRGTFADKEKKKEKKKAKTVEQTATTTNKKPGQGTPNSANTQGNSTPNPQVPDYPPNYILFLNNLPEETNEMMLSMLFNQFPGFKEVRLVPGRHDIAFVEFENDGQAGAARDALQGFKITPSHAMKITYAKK
UniProt Q15003: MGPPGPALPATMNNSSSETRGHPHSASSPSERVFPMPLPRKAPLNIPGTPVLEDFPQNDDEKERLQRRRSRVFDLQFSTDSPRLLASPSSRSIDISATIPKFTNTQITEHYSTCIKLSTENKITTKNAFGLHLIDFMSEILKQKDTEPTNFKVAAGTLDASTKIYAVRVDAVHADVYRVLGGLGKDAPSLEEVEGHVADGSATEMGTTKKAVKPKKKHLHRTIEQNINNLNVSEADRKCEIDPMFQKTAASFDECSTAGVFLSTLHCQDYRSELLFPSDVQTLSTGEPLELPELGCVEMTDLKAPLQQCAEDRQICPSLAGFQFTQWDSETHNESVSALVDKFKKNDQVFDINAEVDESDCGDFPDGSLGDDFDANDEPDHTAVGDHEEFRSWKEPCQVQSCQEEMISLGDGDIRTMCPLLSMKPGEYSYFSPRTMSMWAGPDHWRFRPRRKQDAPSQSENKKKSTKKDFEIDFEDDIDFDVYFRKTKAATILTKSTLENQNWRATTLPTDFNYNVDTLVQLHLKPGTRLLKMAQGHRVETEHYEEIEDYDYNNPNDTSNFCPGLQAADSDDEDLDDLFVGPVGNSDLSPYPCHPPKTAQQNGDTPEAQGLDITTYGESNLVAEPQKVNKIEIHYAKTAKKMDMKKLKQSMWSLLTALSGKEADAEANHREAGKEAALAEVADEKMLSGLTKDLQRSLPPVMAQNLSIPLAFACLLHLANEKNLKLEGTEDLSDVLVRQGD
UniProt Q13098: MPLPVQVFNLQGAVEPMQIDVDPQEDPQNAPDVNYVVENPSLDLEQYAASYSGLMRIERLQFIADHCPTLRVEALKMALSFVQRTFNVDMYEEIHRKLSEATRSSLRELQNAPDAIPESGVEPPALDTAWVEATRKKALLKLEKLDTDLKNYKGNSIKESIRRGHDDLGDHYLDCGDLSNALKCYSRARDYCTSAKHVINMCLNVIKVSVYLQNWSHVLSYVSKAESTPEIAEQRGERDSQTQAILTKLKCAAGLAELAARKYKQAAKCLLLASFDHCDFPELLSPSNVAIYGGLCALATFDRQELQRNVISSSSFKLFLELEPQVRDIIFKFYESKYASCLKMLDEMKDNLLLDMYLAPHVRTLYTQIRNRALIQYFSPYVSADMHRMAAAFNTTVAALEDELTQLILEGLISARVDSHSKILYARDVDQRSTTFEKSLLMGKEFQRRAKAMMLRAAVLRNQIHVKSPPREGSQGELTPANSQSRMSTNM
UniProt Q9UL46: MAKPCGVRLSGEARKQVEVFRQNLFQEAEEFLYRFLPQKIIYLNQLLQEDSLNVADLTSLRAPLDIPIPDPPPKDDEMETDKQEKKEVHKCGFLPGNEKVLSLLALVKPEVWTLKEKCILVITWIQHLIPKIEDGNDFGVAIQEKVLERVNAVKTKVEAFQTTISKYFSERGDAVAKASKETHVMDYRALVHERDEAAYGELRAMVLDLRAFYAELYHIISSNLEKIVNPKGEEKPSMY
UniProt Q9BRP4: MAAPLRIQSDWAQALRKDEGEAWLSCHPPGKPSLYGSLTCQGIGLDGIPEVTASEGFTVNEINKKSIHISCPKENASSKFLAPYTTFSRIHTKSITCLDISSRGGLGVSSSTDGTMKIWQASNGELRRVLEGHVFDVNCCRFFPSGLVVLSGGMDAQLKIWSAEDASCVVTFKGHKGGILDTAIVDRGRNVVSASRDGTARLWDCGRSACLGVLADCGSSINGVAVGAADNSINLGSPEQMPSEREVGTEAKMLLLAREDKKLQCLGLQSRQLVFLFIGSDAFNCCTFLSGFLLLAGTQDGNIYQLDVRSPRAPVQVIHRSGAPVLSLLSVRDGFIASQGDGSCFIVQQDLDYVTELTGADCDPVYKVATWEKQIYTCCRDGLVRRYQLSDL
UniProt P62318: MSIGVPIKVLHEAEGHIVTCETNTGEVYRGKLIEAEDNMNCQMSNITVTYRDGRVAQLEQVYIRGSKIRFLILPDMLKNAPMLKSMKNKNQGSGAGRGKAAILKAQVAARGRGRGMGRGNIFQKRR
UniProt Q92769: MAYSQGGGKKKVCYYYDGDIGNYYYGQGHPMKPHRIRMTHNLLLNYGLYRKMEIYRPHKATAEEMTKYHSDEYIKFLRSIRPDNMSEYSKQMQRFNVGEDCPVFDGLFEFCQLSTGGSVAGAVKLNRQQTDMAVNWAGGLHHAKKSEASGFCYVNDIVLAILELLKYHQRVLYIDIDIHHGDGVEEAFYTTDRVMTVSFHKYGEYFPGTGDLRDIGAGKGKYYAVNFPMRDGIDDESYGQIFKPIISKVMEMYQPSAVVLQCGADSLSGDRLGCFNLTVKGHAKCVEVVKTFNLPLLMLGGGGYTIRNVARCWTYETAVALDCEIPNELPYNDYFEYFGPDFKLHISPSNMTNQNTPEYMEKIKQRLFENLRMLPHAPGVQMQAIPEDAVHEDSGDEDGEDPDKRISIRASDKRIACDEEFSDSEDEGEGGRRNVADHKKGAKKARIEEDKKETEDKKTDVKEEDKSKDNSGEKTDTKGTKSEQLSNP

Assays:
Assay in all cases: cross-linking; BS3 crosslinking of high-molecular weight SEC fractions of K562 cytosol (< 1 mg/ml protein, 2:1 w/w BS3 to protein); trypsin and sequential digestion, peptide SEC, LC-MS/MS, xiSEARCH + xiFDR, 5% residue-pair FDR
[1] = molecular target: COPS2 (human (endogenous in K562)) (UniProt P61201)
[2] = molecular target: PSME1 (human (endogenous in K562)) (UniProt Q06323)
[3] = molecular target: IQGAP1 (human (endogenous in K562)) (UniProt P46940)
[4] = molecular target: SNRPB2 (human (endogenous in K562)) (UniProt P08579)
[5] = molecular target: NCAPH (human (endogenous in K562)) (UniProt Q15003)

binding [1]: binds
Substance: GPS1 (from UniProt Q13098 1-491)

binding [2]: binds
Substance: PSME2 (from UniProt Q9UL46 1-239)

binding [3]: binds
Substance: PAAF1 (from UniProt Q9BRP4 1-392)

binding [4]: binds
Substance: SNRPD3 (from UniProt P62318 1-126)

binding [5]: binds
Substance: HDAC2 (from UniProt Q92769 1-488)
